From US20130022590 come the findings set out here.

Protein sequences, listed by entry. Tags and fused reporters are not part of them. Residues count along the entry.
UniProt O95218, 65-95 R81A: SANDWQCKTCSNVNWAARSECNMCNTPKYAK
UniProt O95218, 65-95 R82A: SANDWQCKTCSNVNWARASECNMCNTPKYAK
UniProt O95218, 65-95 R82N: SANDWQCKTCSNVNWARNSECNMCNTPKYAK
UniProt O95218, 65-95 W79A: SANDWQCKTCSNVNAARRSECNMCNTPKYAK
UniProt P46099, 275-357: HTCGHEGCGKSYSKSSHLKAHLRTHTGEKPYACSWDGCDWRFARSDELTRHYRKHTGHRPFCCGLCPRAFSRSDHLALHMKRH

Substitutions are numbered along the chain they refer to. For part of these data: Weaker means in comparison with the reference protein, sequence or condition of that experiment. For part of these data: Where a protein sequence is shown, tags need not be part of it. For part of these data: Construct, isoform or probe ends are uncertain for at least one entry.

Series [1] deals with T1, ZRANB2-F12 (Homo sapiens) (UniProt O95218).
T1 sequence (looked up): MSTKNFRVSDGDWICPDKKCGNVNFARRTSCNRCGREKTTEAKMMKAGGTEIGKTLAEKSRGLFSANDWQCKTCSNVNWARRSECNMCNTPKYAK
Nature of the series: competition with a labelled probe. To be noted: weaker competitor than exon 3 in SPR competition; purified recombinant protein; protein details: GST removed for FA, gel shift and SPR. In general terms: Mobility shift assays separate free from complexed probe on a gel.

The target in a further series is EKLF-F123 (UniProt P46099). Description: FP. The note with it: weaker than polyU; purified recombinant protein; protein details: zinc fingers 1-3.
Series [2] addresses T2, ZRANB2-F122 (F1-F2-F2) (Homo sapiens) (UniProt O95218).
T2 sequence (looked up, limits assumed): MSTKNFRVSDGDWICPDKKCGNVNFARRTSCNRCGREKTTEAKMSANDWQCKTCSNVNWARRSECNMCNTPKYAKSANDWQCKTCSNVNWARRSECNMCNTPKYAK
Description: FP. The note with it: higher affinity than F12 delta45-64; purified recombinant protein; label: 5'-fluorescein.

The next series addresses T3, ZRANB2-F2 (Homo sapiens) (UniProt O95218).
T3 sequence (looked up): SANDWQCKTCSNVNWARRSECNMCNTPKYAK
Description: FP. The note with it: purified recombinant protein; protein details: GST fusion (FA); label: 5'-fluorescein; variant of 17-nt AGGUAA ssRNA.

Series [3] concerns the target T4, ZRANB2-F2 M87A (Homo sapiens) (UniProt O95218).
T4 sequence (looked up): T3 sequence (looked up) with M23A
Description: FP. To be noted: significantly reduced Ka; purified recombinant protein; label: 5'-fluorescein (FA) or 32P (gel shift).

In series [4] the target is T5, ZRANB2-F2 N86A (Homo sapiens) (UniProt O95218).
T5 sequence (looked up): T3 sequence (looked up) with N22A
Description: FP. The note with it: significantly reduced Ka; purified recombinant protein; label: 5'-fluorescein (FA) or 32P (gel shift).

In series [5] the target is T6, ZRANB2-F2 R81A (Homo sapiens) (UniProt O95218).
T6 sequence (looked up): T3 sequence (looked up) with R17A
Description: FP. To be noted: significantly reduced Ka; purified recombinant protein; label: 5'-fluorescein (FA) or 32P (gel shift).

Series [6] has as its target T7, ZRANB2-F2 R82A (Homo sapiens) (UniProt O95218).
T7 sequence (looked up): T3 sequence (looked up) with R18A
Description: FP. To be noted: significantly reduced Ka; purified recombinant protein; label: 5'-fluorescein (FA) or 32P (gel shift).

In series [7] the target is T8, ZRANB2-F2 R82N (Homo sapiens) (UniProt O95218).
T8 sequence (looked up): T3 sequence (looked up) with R18N
Description: FP. The note with it: purified recombinant protein; label: 5'-fluorescein (FA) or 32P (gel shift).

The target of series [8] is T9, ZRANB2-F2 W79A (Homo sapiens) (UniProt O95218).
T9 sequence (looked up): T3 sequence (looked up) with W15A
Description: FP. To be noted: significantly reduced Ka; purified recombinant protein; label: 5'-fluorescein (FA) or 32P (gel shift).

The target in series [9] is T1, ZRANB2-F12 (Homo sapiens). Description: FP. The note with it: small reproducible reduction versus double site; value in figure only; purified recombinant protein; protein details: GST removed for FA, gel shift and SPR; label: 5'-fluorescein; variant of double site AGGUAAAGGUAA

Turning to “GCGAGCGGUACGUAGA [Tra2-beta exon 1 5' splice site competitor]”, the binding result in series [1] was “binds more weakly”.

Take AGGUAA [AGGUAA hexamer]: in the series with EKLF-F123, the binding result is given as “binds more weakly”.

With AAAGGUGGUAAAA [GGUGGU 13-mer], the binding result in [2] is reported as “binds”. As for AGUUAA [AGUUAA (3U)], in the series with ZRANB2-F2 (Homo sapiens), the binding result was “binds more weakly”. For “AGGAAUAAGUGAAGCUG [Tra2-beta exon 2 5' splice site competitor]”, the binding result in series [1] is on record as “binds more weakly”. As to GCAACCAGGUAAAGUCU [17-nt AGGUAA ssRNA], the binding result in [3], in series [4], in series [5], in [6], in series [7] and in series [8] was “binds more weakly” each time.

“AGAAUGAGGUAA [one-site scrambled double site]”: the binding result in series [9] is “binds more weakly”.
